Source: the supplement of paper PMC3353916
The data scatter; read single values as rough.

System: Sindbis virus TE/5'2J-GFP
Assay: percent infected (GFP+ in RFP+ ISG-expressing cells); higher = more infection (less antiviral activity)
Details: experiment: primary screen (single well)

Row | Sequence | percent infected (BHK/HA-Zeo (control)) [%] | percent infected (BHK/NZAP-Zeo (ZAP)) [%]
1 | MGSEKDSESPRSTSLHAAAPDPKCRSGGRRRRLTLHSVFSASARGRRARAKPQAEPPPPAAQPPPAPAPAAAQGPPPEALPAEPAAEAEAEAAAAAAEPGFDDEEAAEGGGPGAEEVECPLCLVRLPPERAPRLLSCPHRSCRDCLRHYLRLEISESRVPISCPECSERLNPHDIRLLLADPPLMHKYEEFMLRRYLASDPDCRWCPAPDCGYAVIAYGCASCPKLTCEREGCQTEFCYHCKQIWHPNQTCDMARQQRAQTLRVRTKHTSGLSYGQESGPADDIKPCPRCSAYIIKMNDGSCNHMTCAVCGCEFCWLCMKEISDLHYLSPSGCTFWGKKPWSRKKKILWQLGTLIGAPVGISLIAGIAIPAMVIGIPVYVGRKIHSRYEGRKTSKHKRNLAITGGVTLSVIASPVIAAVSVGIGVPIMLAYVYGVVPISLCRGGGCGVSTANGKGVKIEFDEDDGPITVADAWRALKNPSIGESSIEGLTSVLSTSGSPTDGLSVMQGPYSETASFAALSGGTLSGGILSSGKGKYSRLEVQADVQKEIFPKDTASLGAISDNASTRAMAGSIISSYNPQDRECNNMEIQVDIEAKPSHYQLVSGSSTEDSLHVHAQMAENEEEGSGGGGSEEDPPCRHQSCEQKDCLASKPWDISLAQPESIRSDLESSDAQSDDVPDITSDECGSPRSHTAACPSTPRAQGAPSPSAHMNLSALAEGQTVLKPEGGEARV [RNF19B] | 96.8 | 97.4
2 | MGSQALPPGPMQTLIFFDMEATGLPFSQPKVTELCLLAVHRCALESPPTSQGPPPTVPPPPRVVDKLSLCVAPGKACSPAASEITGLSTAVLAAHGRQCFDDNLANLLLAFLRRQPQPWCLVAHNGDRYDFPLLQAELAMLGLTSALDGAFCVDSITALKALERASSPSEHGPRKSYSLGSIYTRLYGQSPPDSHTAEGDVLALLSICQWRPQALLRWVDAHARPFGTIRPMYGVTASARTKPRPSAVTTTAHLATTRNTSPSLGESRGTKDLPPVKDPGALSREGLLAPLGLLAILTLAVATLYGLSLATPGE [TREX1] | 95.6 | 93.6
3 | MGTSLSPNDPWPLNPLSIQQTTLLLLLSVLATVHVGQRLLRQRRRQLRSAPPGPFAWPLIGNAAAVGQAAHLSFARLARRYGDVFQIRLGSCPIVVLNGERAIHQALVQQGSAFADRPAFASFRVVSGGRSMAFGHYSEHWKVQRRAAHSMMRNFFTRQPRSRQVLEGHVLSEARELVALLVRGSADGAFLDPRPLTVVAVANVMSAVCFGCRYSHDDPEFRELLSHNEEFGRTVGAGSLVDVMPWLQYFPNPVRTVFREFEQLNRNFSNFILDKFLRHCESLRPGAAPRDMMDAFILSAEKKAAGDSHGGGARLDLENVPATITDIFGASQDTLSTALQWLLLLFTRYPDVQTRVQAELDQVVGRDRLPCMGDQPNLPYVLAFLYEAMRFSSFVPVTIPHATTANTSVLGYHIPKDTVVFVNQWSVNHDPLKWPNPENFDPARFLDKDGLINKDLTSRVMIFSVGKRRCIGEELSKMQLFLFISILAHQCDFRANPNEPAKMNFSYGLTIKPKSFKVNVTLRESMELLDSAVQNLQAKETCQ [CYP1B1] | 92.3 | 90.2
4 | MGVNAVHWFRKGLRLHDNPALKECIQGADTIRCVYILDPWFAGSSNVGINRWRFLLQCLEDLDANLRKLNSRLFVIRGQPADVFPRLFKEWNITKLSIEYDSEPFGKERDAAIKKLATEAGVEVIVRISHTLYDLDKIIELNGGQPPLTYKRFQTLISKMEPLEIPVETITSEVIEKCTTPLSDDHDEKYGVPSLEELGFDTDGLSSAVWPGGETEALTRLERHLERKAWVANFERPRMNANSLLASPTGLSPYLRFGCLSCRLFYFKLTDLYKKVKKNSSPPLSLYGQLLWREFFYTAATNNPRFDKMEGNPICVQIPWDKNPEALAKWAEGRTGFPWIDAIMTQLRQEGWIHHLARHAVACFLTRGDLWISWEEGMKVFEELLLDADWSINAGSWMWLSCSSFFQQFFHCYCPVGFGRRTDPNGDYIRRYLPVLRGFPAKYIYDPWNAPEGIQKVAKCLIGVNYPKPMVNHAEASRLNIERMKQIYQQLSRYRGLGLLASVPSNPNGNGGFMGYSAENIPGCSSSGSCSQGSGILHYAHGDSQQTHLLKQGRSSMGTGLSGGKRPSQEEDTQSIGPKVQRQSTN [CRY1] | 98.3 | 96.3
5 | MHLCGGNGLLTQTDPKEQQRQLKKQKNRAAAQRSRQKHTDKADALHQQHESLEKDNLALRKEIQSLQAELAWWSRTLHVHERLCPMDCASCSAPGLLGCWDQAEGLLGPGPQGQHGCREQLELFQTPGSCYPAQPLSPGPQPHDSPSLLQCPLPSLSLGPAVVAEPPVQLSPSPLLFASHTGSSLQGSSSKLSALQPSLTAQTAPPQPLELEHPTRGKLGSSPDNPSSALGLARLQSREHKPALSAATWQGLVVDPSPHPLLAFPLLSSAQVHF [BATF2] | 90.7 | 80.5
6 | MHRRRSRSCREDQKPVMDDQRDLISNNEQLPMLGRRPGAPESKCSRGALYTGFSILVTLLLAGQATTAYFLYQQQGRLDKLTVTSQNLQLENLRMKLPKPPKPVSKMRMATPLLMQALPMGALPQGPMQNATKYGNMTEDHVMHLLQNADPLKVYPPLKGSFPENLRHLKNTMETIDWKVFESWMHHWLLFEMSRHSLEQKPTDAPPKVLTKCQEEVSHIPAVHPGSFRPKCDENGNYLPLQCYGSIGYCWCVFPNGTEVPNTRSRGHHNCSESLELEDPSSGLGVTKQDLGPVPM [CD74] | 94.8 | 88.2
7 | MIAAQAKLVYQLNKYYTERCQARKAAIAKTIREVCKVVSDVLKEVEVQEPRFISSLSEIDARYEGLEVISPTEFEVVLYLNQMGVFNFVDDGSLPGCAVLKLSDGRKRSMSLWVEFITASGYLSARKIRSRFQTLVAQAVDKCSYRDVVKMIADTSEVKLRIRERYVVQITPAFKCTGIWPRSAAQWPMPHIPWPGPNRVAEVKAEGFNLLSKECYSLTGKQSSAESDAWVLQFGEAENRLLMGGCRNKCLSVLKTLRDRHLELPGQPLNNYHMKTLLLYECEKHPRETDWDESCLGDRLNGILLQLISCLQCRRCPHYFLPNLDLFQGKPHSALESAAKQTWRLAREILTNPKSLDKL [MAB21L2] | 92.4 | 64.2
8 | MIASHLLAYFFTELNHDQVQKVDQYLYHMRLSDETLLEISKRFRKEMEKGLGATTHPTAAVKMLPTFVRSTPDGTEHGEFLALDLGGTNFRVLWVKVTDNGLQKVEMENQIYAIPEDIMRGSGTQLFDHIAECLANFMDKLQIKDKKLPLGFTFSFPCHQTKLDESFLVSWTKGFKSSGVEGRDVVALIRKAIQRRGDFDIDIVAVVNDTVGTMMTCGYDDHNCEIGLIVGTGSNACYMEEMRHIDMVEGDEGRMCINMEWGAFGDDGSLNDIRTEFDQEIDMGSLNPGKQLFEKMISGMYMGELVRLILVKMAKEELLFGGKLSPELLNTGRFETKDISDIEGEKDGIRKAREVLMRLGLDPTQEDCVATHRICQIVSTRSASLCAATLAAVLQRIKENKGEERLRSTIGVDGSVYKKHPHFAKRLHKTVRRLVPGCDVRFLRSEDGSGKGAAMVTAVAYRLADQHRARQKTLEHLQLSHDQLLEVKRRMKVEMERGLSKETHASAPVKMLPTYVCATPDGTEKGDFLALDLGGTNFRVLLVRVRNGKWGGVEMHNKIYAIPQEVMHGTGDELFDHIVQCIADFLEYMGMKGVSLPLGFTFSFPCQQNSLDESILLKWTKGFKASGCEGEDVVTLLKEAIHRREEFDLDVVAVVNDTVGTMMTCGFEDPHCEVGLIVGTGSNACYMEEMRNVELVEGEEGRMCVNMEWGAFGDNGCLDDFRTEFDVAVDELSLNPGKQRFEKMISGMYLGEIVRNILIDFTKRGLLFRGRISERLKTRGIFETKFLSQIESDCLALLQVRAILQHLGLESTCDDSIIVKEVCTVVARRAAQLCGAGMAAVVDRIRENRGLDALKVTVGVDGTLYKLHPHFAKVMHETVKDLAPKCDVSFLQSEDGSGKGAALITAVACRIREAGQR [HK2] | 92.5 | 94.5
9 | MKEDCLPSSHVPISDSKSIQKSELLGLLKTYNCYHEGKSFQLRHREEEGTLIIEGLLNIAWGLRRPIRLQMQDDREQVHLPSTSWMPRRPSCPLKEPSPQNGNITAQGPSIQPVHKAESSTDSSGPLEEAEEAPQLMRTKSDASCMSQRRPKCRAPGEAQRIRRHRFSINGHFYNHKTSVFTPAYGSVTNVRVNSTMTTLQVLTLLLNKFRVEDGPSEFALYIVHESGERTKLKDCEYPLISRILHGPCEKIARIFLMEADLGVEVPHEVAQYIKFEMPVLDSFVEKLKEEEEREIIKLTMKFQALRLTMLQRLEQLVEAK [RASSF4] | 97.5 | 77.1
10 | MKIFLPVLLAALLGVERASSLMCFSCLNQKSNLYCLKPTICSDQDNYCVTVSASAGIGNLVTFGHSLSKTCSPACPIPEGVNVGVASMGISCCQSFLCNFSAADGGLRASVTLLGAGLLLSLLPALLRFGP [LY6E] | 97.8 | 95.2
11 | MKLCVTVLSLLMLVAAFCSPALSAPMGSDPPTACCFSYTARKLPRNFVVDYYETSSLCSQPAVVFQTKRSKQVCADPSESWVQEYVYDLELN [CCL4] | 96.1 | 96
12 | MKLLTGLVFCSLVLGVSSRSFFSFLGEAFDGARDMWRAYSDMREANYIGSDKYFHARGNYDAAKRGPGGAWAAEVITDARENIQRFFGHGAEDSLADQAANEWGRSGKDPNHFRPAGLPEKY [SAA1] | 92.2 | 87.3
13 | MKLRSSHNASKTLNANNMETLIECQSEGDIKEHPLLASCESEDSICQLIEVKKRKKVLSWPFLMRRLSPASDFSGALETDLKASLFDQPLSIICGDSDTLPRPIQDILTILCLKGPSTEGIFRRAANEKARKELKEELNSGDAVDLERLPVHLLAVVFKDFLRSIPRKLLSSDLFEEWMGALEMQDEEDRIEALKQVADKLPRPNLLLLKHLVYVLHLISKNSEVNRMDSSNLAICIGPNMLTLENDQSLSFEAQKDLNNKVKTLVEFLIDNCFEIFGENIPVHSSITSDDSLEHTDSSDVSTLQNDSAYDSNDPDVESNSSSGISSPSRQPQVPMATAAGLDSAGPQDAREVSPEPIVSTVARLKSSLAQPDRRYSEPSMPSSQECLESRVTNQTLTKSEGDFPVPRVGSRLESEEAEDPFPEEVFPAVQGKTKRPVDLKIKNLAPGSVLPRALVLKAFSSSSLDASSDSSPVASPSSPKRNFFSRHQSFTTKTEKGKPSREIKKHSMSFTFAPHKKVLTKNLSAGSGKSQDFTRDHVPRGVRKESQLAGRIVQENGCETHNQTARGFCLRPHALSVDDVFQGADWERPGSPPSYEEAMQGPAARLVASESQTVGSMTVGSMRARMLEAHCLLPPLPPAHHVEDSRHRGSKEPLPGHGLSPLPERWKQSRTVHASGDSLGHVSGPGRPELLPLRTVSESVQRNKRDCLVRRCSQPVFEADQFQYAKESYI [TAGAP] | 95.1 | 81.6
14 | MKLVSVALMYLGSLAFLGADTARLDVASEFRKKWNKWALSRGKRELRMSSSYPTGLADVKAGPAQTLIRPQDMKGASRSPEDSSPDAARIRVKRYRQSMNNFQGLRSFGCRFGTCTVQKLAHQIYQFTDKDKDNVAPRSKISPQGYGRRRRRSLPEAGPGRTLVSSKPQAHGAPAPPSGSAPHFL [ADM] | 97.3 | 92.8
15 | MKMRFLGLVVCLVLWTLHSEGSGGKLTAVDPETNMNVSEIISYWGFPSEEYLVETEDGYILCLNRIPHGRKNHSDKGPKPVVFLQHGLLADSSNWVTNLANSSLGFILADAGFDVWMGNSRGNTWSRKHKTLSVSQDEFWAFSYDEMAKYDLPASINFILNKTGQEQVYYVGHSQGTTIGFIAFSQIPELAKRIKMFFALGPVASVAFCTSPMAKLGRLPDHLIKDLFGDKEFLPQSAFLKWLGTHVCTHVILKELCGNLCFLLCGFNERNLNMSRVDVYTTHSPAGTSVQNMLHWSQAVKFQKFQAFDWGSSAKNYFHYNQSYPPTYNVKDMLVPTAVWSGGHDWLADVYDVNILLTQITNLVFHESIPEWEHLDFIWGLDAPWRLYNKIINLMRKYQ [LIPA] | 98.8 | 97.1

Nos. 13 to 15 from above:
Row | Sequence | percent infected (BHK/HA-Zeo (control)) [%] | percent infected (BHK/NZAP-Zeo (ZAP)) [%]
13 | MKLRSSHNASKTLNANNMETLIECQSEGDIKEHPLLASCESEDSICQLIEVKKRKKVLSWPFLMRRLSPASDFSGALETDLKASLFDQPLSIICGDSDTLPRPIQDILTILCLKGPSTEGIFRRAANEKARKELKEELNSGDAVDLERLPVHLLAVVFKDFLRSIPRKLLSSDLFEEWMGALEMQDEEDRIEALKQVADKLPRPNLLLLKHLVYVLHLISKNSEVNRMDSSNLAICIGPNMLTLENDQSLSFEAQKDLNNKVKTLVEFLIDNCFEIFGENIPVHSSITSDDSLEHTDSSDVSTLQNDSAYDSNDPDVESNSSSGISSPSRQPQVPMATAAGLDSAGPQDAREVSPEPIVSTVARLKSSLAQPDRRYSEPSMPSSQECLESRVTNQTLTKSEGDFPVPRVGSRLESEEAEDPFPEEVFPAVQGKTKRPVDLKIKNLAPGSVLPRALVLKAFSSSSLDASSDSSPVASPSSPKRNFFSRHQSFTTKTEKGKPSREIKKHSMSFTFAPHKKVLTKNLSAGSGKSQDFTRDHVPRGVRKESQLAGRIVQENGCETHNQTARGFCLRPHALSVDDVFQGADWERPGSPPSYEEAMQGPAARLVASESQTVGSMTVGSMRARMLEAHCLLPPLPPAHHVEDSRHRGSKEPLPGHGLSPLPERWKQSRTVHASGDSLGHVSGPGRPELLPLRTVSESVQRNKRDCLVRRCSQPVFEADQFQYAKESYI [TAGAP] | 95.1 | 81.6
14 | MKLVSVALMYLGSLAFLGADTARLDVASEFRKKWNKWALSRGKRELRMSSSYPTGLADVKAGPAQTLIRPQDMKGASRSPEDSSPDAARIRVKRYRQSMNNFQGLRSFGCRFGTCTVQKLAHQIYQFTDKDKDNVAPRSKISPQGYGRRRRRSLPEAGPGRTLVSSKPQAHGAPAPPSGSAPHFL [ADM] | 97.3 | 92.8
15 | MKMRFLGLVVCLVLWTLHSEGSGGKLTAVDPETNMNVSEIISYWGFPSEEYLVETEDGYILCLNRIPHGRKNHSDKGPKPVVFLQHGLLADSSNWVTNLANSSLGFILADAGFDVWMGNSRGNTWSRKHKTLSVSQDEFWAFSYDEMAKYDLPASINFILNKTGQEQVYYVGHSQGTTIGFIAFSQIPELAKRIKMFFALGPVASVAFCTSPMAKLGRLPDHLIKDLFGDKEFLPQSAFLKWLGTHVCTHVILKELCGNLCFLLCGFNERNLNMSRVDVYTTHSPAGTSVQNMLHWSQAVKFQKFQAFDWGSSAKNYFHYNQSYPPTYNVKDMLVPTAVWSGGHDWLADVYDVNILLTQITNLVFHESIPEWEHLDFIWGLDAPWRLYNKIINLMRKYQ [LIPA] | 98.8 | 97.1
